Laboratory results published in article PMC10411580.
No constants are given. Whether binding was seen depends on the method and setting. In cells and extracts the contact can be indirect. Some binding calls cover weakened binding; strength is not graded here. Tags and fused reporters may be left off the sequences shown.

T1: Rrp45-TAP (S. cerevisiae RNA exosome core subunit Rrp45, C-terminally tandem affinity purification tagged) (S. cerevisiae) (UniProt Q05636)
T1 sequence: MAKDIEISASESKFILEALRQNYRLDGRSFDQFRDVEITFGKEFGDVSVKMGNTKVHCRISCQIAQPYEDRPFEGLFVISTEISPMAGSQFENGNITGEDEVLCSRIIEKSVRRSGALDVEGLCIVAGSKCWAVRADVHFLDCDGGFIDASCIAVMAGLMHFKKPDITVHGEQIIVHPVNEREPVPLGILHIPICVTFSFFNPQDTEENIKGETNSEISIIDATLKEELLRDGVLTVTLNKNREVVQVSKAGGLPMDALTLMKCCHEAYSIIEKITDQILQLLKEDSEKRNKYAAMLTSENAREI


Molecular target: T1, Rrp45-TAP (S. cerevisiae RNA exosome core subunit Rrp45, C-terminally tandem affinity purification tagged) (S. cerevisiae)
Assay: co-IP; Rrp45-TAP precipitated on IgG Sepharose beads from 1 mg cleared lysate of RRP45-TAP cells grown at 30°C that hold endogenous wild-type Rrp4 and express Myc-tagged Rrp4 variants from plasmids; IPP150 buffer (10 mM Tris-HCl pH 8, 150 mM NaCl, 0.1% NP40), 4°C overnight; anti-Myc immunoblot

binding	Binder
binds	Rrp4-2xMyc (wild-type S. cerevisiae RNA exosome cap subunit Rrp4, Myc-tagged) (protein, UniProt P38792 1-359) MSEVITITKRNGAFQNSSNLSYNNTGISDDENDEEDIYMHDVNSASKSESDSQIVTPGELVTDDPIWMRGHGTYFLDNMTYSSVAGTVSRVNRLLSVIPLKGRYAPETGDHVVGRIAEVGNKRWKVDIGGKQHAVLMLGSVNLPGGILRRKSESDELQMRSFLKEGDLLNAEVQSLFQDGSASLHTRSLKYGKLRNGMFCQVPSSLIVRAKNHTHNLPGNITVVLGVNGYIWLRKTSQMDLARDTPSANNSSSIKSTGPTGAVSLNPSITRLEEESSWQIYSDENDPSISNNIRQAICRYANVIKALAFCEIGITQQRIVSAYEASMVYSNVGELIEKNVMESIGSDILTAEKMRGNGN
binds	Rrp4 M68T-2xMyc (S. cerevisiae Rrp4 variant that models human EXOSC2 p.Met40Thr, Myc-tagged) (protein, UniProt P38792 1-359) MSEVITITKRNGAFQNSSNLSYNNTGISDDENDEEDIYMHDVNSASKSESDSQIVTPGELVTDDPIWTRGHGTYFLDNMTYSSVAGTVSRVNRLLSVIPLKGRYAPETGDHVVGRIAEVGNKRWKVDIGGKQHAVLMLGSVNLPGGILRRKSESDELQMRSFLKEGDLLNAEVQSLFQDGSASLHTRSLKYGKLRNGMFCQVPSSLIVRAKNHTHNLPGNITVVLGVNGYIWLRKTSQMDLARDTPSANNSSSIKSTGPTGAVSLNPSITRLEEESSWQIYSDENDPSISNNIRQAICRYANVIKALAFCEIGITQQRIVSAYEASMVYSNVGELIEKNVMESIGSDILTAEKMRGNGN
no binding	Rrp4 G226D-2xMyc (S. cerevisiae Rrp4 variant that models the SHRF-linked human EXOSC2 p.Gly198Asp, Myc-tagged) (protein, UniProt P38792 1-359) MSEVITITKRNGAFQNSSNLSYNNTGISDDENDEEDIYMHDVNSASKSESDSQIVTPGELVTDDPIWMRGHGTYFLDNMTYSSVAGTVSRVNRLLSVIPLKGRYAPETGDHVVGRIAEVGNKRWKVDIGGKQHAVLMLGSVNLPGGILRRKSESDELQMRSFLKEGDLLNAEVQSLFQDGSASLHTRSLKYGKLRNGMFCQVPSSLIVRAKNHTHNLPGNITVVLDVNGYIWLRKTSQMDLARDTPSANNSSSIKSTGPTGAVSLNPSITRLEEESSWQIYSDENDPSISNNIRQAICRYANVIKALAFCEIGITQQRIVSAYEASMVYSNVGELIEKNVMESIGSDILTAEKMRGNGN
